Here are results for two substances from publication PMC9570119.

Sequences of proteins named here, by UniProt entry; tags and fusion partners are left off.
UniProt P04792: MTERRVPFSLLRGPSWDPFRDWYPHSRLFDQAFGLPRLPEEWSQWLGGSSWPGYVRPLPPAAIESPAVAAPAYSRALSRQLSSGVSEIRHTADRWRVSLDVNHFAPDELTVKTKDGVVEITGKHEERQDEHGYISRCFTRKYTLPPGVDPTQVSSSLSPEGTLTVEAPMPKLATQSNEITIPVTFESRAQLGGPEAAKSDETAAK

No constants are given. Whether binding was seen depends on the method and setting. In cells and extracts the contact can be indirect. Some binding calls cover weakened binding; strength is not graded here. Where a sequence is shown, tags or fusion partners need not be part of it.

Assay [1] addresses FLAG-tagged FAIM-S (Fas Apoptosis Inhibitory Molecule, short form) (human) (UniProt Q9NVQ4). The experiment in a line: co-IP; FAIM-KO HeLa cells transfected with FLAG-FAIM-S, with or without menadione (100 μM) or heat shock (43 °C); RIPA lysate; anti-FLAG M2 magnetic beads, 4 °C, 2 h; eluted with 3 × FLAG peptide; Western blot for HSP proteins.
For assay [2] the target is unchanged. Put plainly: proximity ligation; in situ PLA (Duolink) in FAIM-KO HeLa cells transfected with FLAG-tagged vectors; 43 °C for 30 min, DMSO or menadione 100 μM for 60 min; methanol-fixed; mouse anti-FLAG and goat anti-HSP27.
Assay [3] addresses FLAG-tagged FAIM-S (Fas Apoptosis Inhibitory Molecule, short form) expressed in HLE B-3 cells (human) (UniProt Q9NVQ4). Put plainly: co-IP; HLE B-3 cells, treated and harvested as the HeLa cells (FLAG-FAIM-S, cellular stress induction); anti-FLAG immunoprecipitation; Western blot for HSP27, αA- and αB-crystallin. A general note: Immunoblotting shows a protein as a band on a membrane.

As for “heat shock protein 27 (HSP27) (from UniProt P04792 1-205)”, the binding entry in assay [1] and in assay [2] was “binds” each time. “heat shock protein 27 (HSP27) of HLE B-3 cells (from UniProt P04792 1-205)”: the binding result in assay [3] is listed as “binds”.
